# Test: physchem
# Conditions: octanol/water, pH 7.4
smiles,measurement,value
O=C(CN1CCCCC1)Nc1ccc2oc(-c3ccco3)nc2c1,logD at 1 h,2.33

# From ChEMBL document CHEMBL5126505, “Adenosine receptor antagonists: Recent advances and therapeutic perspective” (Eur J Med Chem, 2022)
